# Laboratory results: PubChem BioAssay (NCATS)
# Protein sequences, listed by entry. Tags and fused reporters are not part of them. Lines headed by an entry give the natural chain unless they say otherwise; changes in a name come on top.
# UniProt P10828: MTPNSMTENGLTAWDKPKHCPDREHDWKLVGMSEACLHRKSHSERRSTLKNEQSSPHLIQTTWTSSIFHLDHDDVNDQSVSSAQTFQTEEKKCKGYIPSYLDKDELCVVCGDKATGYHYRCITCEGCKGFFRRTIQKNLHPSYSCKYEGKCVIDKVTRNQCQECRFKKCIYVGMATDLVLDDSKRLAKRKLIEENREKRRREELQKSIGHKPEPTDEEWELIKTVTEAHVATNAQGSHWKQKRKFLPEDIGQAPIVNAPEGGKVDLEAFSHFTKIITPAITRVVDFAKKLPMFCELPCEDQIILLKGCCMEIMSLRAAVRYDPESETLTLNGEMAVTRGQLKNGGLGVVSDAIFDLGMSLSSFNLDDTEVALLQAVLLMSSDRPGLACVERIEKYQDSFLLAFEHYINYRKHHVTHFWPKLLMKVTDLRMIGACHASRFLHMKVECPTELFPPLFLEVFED
# UniProt Q03181: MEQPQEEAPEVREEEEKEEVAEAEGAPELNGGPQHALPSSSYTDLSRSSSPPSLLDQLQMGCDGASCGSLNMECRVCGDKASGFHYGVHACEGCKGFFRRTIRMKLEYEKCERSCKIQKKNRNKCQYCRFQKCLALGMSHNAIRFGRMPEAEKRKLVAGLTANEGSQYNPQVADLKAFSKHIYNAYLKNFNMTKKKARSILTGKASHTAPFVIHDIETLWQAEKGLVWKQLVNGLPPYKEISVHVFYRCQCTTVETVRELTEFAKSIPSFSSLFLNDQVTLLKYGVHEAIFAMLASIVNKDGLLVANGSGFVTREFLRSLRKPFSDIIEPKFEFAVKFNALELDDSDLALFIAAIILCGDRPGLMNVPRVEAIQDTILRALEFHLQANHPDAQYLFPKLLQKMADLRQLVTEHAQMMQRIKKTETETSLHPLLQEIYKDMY
# UniProt P19793: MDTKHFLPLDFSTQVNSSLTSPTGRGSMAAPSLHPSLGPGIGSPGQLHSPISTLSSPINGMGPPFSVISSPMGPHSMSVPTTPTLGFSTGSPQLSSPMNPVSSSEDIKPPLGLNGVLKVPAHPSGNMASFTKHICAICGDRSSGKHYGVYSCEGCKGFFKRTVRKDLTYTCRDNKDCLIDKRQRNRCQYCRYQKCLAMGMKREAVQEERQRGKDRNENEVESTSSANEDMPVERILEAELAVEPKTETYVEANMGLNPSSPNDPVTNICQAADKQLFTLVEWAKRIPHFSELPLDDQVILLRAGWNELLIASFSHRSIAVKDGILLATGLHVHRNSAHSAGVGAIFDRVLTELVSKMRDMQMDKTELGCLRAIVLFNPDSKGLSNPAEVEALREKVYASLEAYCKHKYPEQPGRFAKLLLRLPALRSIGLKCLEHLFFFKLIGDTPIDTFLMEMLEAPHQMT
# Inconclusive results, whose numbers are uncertain, are shown with a selection of clear calls. For part of these data: A potency beside an inconclusive call is a rough fit, not a confirmed value. For part of these data: “Side channel” marks fits to a control or component signal instead of the main read-out. Active and inactive are the calls of the source. Unless noted, calls come from the whole dose curve.
# Experiments:
# [1] = target: Bile acid receptor (Homo sapiens) (UniProt Q96RI1); assay: qHTS assay for small molecule agonists of farnesoid X receptor signaling (AID 588527); details: HEK293T FXR-UAS-bla, beta-lactamase ratio, 16 h; activation: stronger effect = higher value; note: potency is the fitted concentration of half-maximal effect;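 for activation: 0% = vehicle basal and 100% = reference agonist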
# In short: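 Agonist-mode beta-lactamase reporter in GeneBLAzer FXR-UAS-bla HEK293T cells, titration up to 92 uM, 16 h exposure at 37 C, CCF4 fluorescence. Response scaled to DMSO (0%) and 100 uM chenodeoxycholic acid (100%), then Hill-fitted for EC50 and efficacy.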
# [2] = target: Thyroid hormone receptor beta (Homo sapiens) (UniProt P10828); assay: qHTS assay for small molecule antagonists of thyroid hormone receptor beta signaling (AID 588547; active = well fitted inhibition curve with a large enough effect in the signal ratio, with a control signal flat, not every such curve was filed as active; inconclusive = small, poorly fitted or top-dose-only effect, or effect the other way, or a change in a side signal; the % refers to the signal ratio; note: potency is the fitted concentration of half-maximal effect;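 for activity change % (negative = inhibition): cells stimulated with 0.4 nM T3 agonist during compound exposure; % is set by controls: 0 for no effect and ±100 for the full control effect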); details: TR-UAS-bla HEK293, beta-lactamase ratio, antagonist mode, 18 h
# In short: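 TR-UAS-bla GripTite HEK293 cells in 2% charcoal/dextran FBS medium were preincubated 4 h at 37 C, given compound (0.59 nM to 92 uM) plus 0.4 nM T3 (final) for 18 h, then CCF4 for 2 h at RT; Hill fit gave IC50.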
# [3] = qHTS assay for small molecule agonists of the antioxidant response element (ARE) signaling pathway (AID 651741; active = well fitted activation curve with a large enough effect in the signal ratio; inconclusive = small, poorly fitted or top-dose-only effect, or effect the other way, or a change in a side signal; the % refers to the signal ratio; note: potency is the fitted concentration of half-maximal effect; for activation: % of control where 0% means no effect); details: HepG2 ARE-bla reporter, beta-lactamase FRET ratio, 16 h; activation: at 96 µM (top of the series) unless noted
# In short: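 Reporter: beta-lactamase under ARE, stably in HepG2. Exposure: 16 h, 37 C, compounds delivered in DMSO by pin tool after 5 h cell preincubation. Readout: FRET substrate fluorescence after 2 h at RT.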
# [4] = qHTS assay for small molecule activators of the p53 signaling pathway (AID 651743; active = well fitted activation curve with a large enough effect in the signal ratio, not every such curve was filed as active; inconclusive = small, poorly fitted or top-dose-only effect, or a change in a side signal; the % refers to the signal ratio; note: % of control where 0% means no effect); details: HCT-116 p53RE-bla, beta-lactamase FRET ratio, 16 h; activation: stronger effect = higher value
# In short: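 Agonist-mode quantitative HTS in HCT-116 cells carrying a p53-response-element beta-lactamase reporter; 16 h compound treatment at 37 C, then FRET substrate loading for 2 h at room temperature and fluorescence read.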
# [5] = qHTS assay for small molecule agonists of the antioxidant response element (ARE) signaling pathway measured by Nrf2-dependant transcriptional activity (AID 720636; active = well fitted curve in the direction sought with a large enough effect in the repeat runs; inconclusive = weak or mixed curves; inactive = no such curve, though single readings can be large; an effect the other way counts as inactive or inconclusive; note: potency is the fitted concentration of half-maximal effect;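 for activation: HepG2 cells with an ARE-driven luciferase reporter; % of control where 0% means no effect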)
# In short: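 First, ARE-luc HepG2 cells attached for 6 hr at 37 C in 1% dialyzed FBS medium. Next, compound or DMSO was added and incubated 16 hr. Finally, ONE-Glo reagent was added and luminescence measured after 30 min.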
# [6] = Cellular Toxicity (caspase-3) Jurkat (AID 655; active = well fitted curve in the direction sought with a large enough effect; inconclusive = small, poorly fitted or top-dose-only effect, or another doubt; inactive = no such curve, though single readings can be large; an effect the other way counts as inactive or inconclusive;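 note: cells exposed to compound for 16 h at 37 °C before reading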); details: Jurkat caspase-3 activation, luminescence; caspase-3 activation: at 92.2 µM (top of the series), DMSO = 0%, tamoxifen = 100%
# In short: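 Luminescent caspase-3/7 readout (aminoluciferin substrate cleavage) in human T-cell leukemia Jurkat cells after 16 hr compound exposure. Concentration-response normalized to DMSO and 100 uM tamoxifen; AC50 by standard Hill equation.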
# [7] = MultiTox-Fluor Cytotoxicity Assay - LYMP1-001 - Live Cells (AID 947; active = well fitted curve in the direction sought with a large enough effect; inconclusive = small, poorly fitted or top-dose-only effect, or another doubt; inactive = no such curve, though single readings can be large; an effect the other way counts as inactive or inconclusive;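 note: 0% = DMSO only and full inhibition = tetraoctylammonium bromide control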)
# [8] = target: Peroxisome proliferator-activated receptor delta (Homo sapiens) (UniProt Q03181); assay: qHTS assay for small molecule antagonists of peroxisome proliferator-activated receptor delta signaling (AID 588535; active = well fitted inhibition curve with a large enough effect in the signal ratio, with a control signal flat, not every such curve was filed as active; inconclusive = small, poorly fitted or top-dose-only effect, or effect the other way, or a change in a side signal; inactive = no such curve, though single readings can be large or run the other way; the % refers to the signal ratio); details: HEK293T PPARd-UAS-bla, beta-lactamase FRET ratio, 18 h; activity change, negative = inhibition: at 76.7 µM (top of the series) unless noted
# In short: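 Inhibition of PPAR-delta response element-driven beta-lactamase expression is measured in HEK293T cells exposed to a compound titration series for 18 hrs at 37 C. Half-maximal inhibition comes from Hill equation fitting.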
# [9] = qHTS assay to identify small molecules that stimulate interleukin-8 (IL-8) secretion (AID 651758; active = well fitted activation curve with a large enough effect in the signal ratio; inconclusive = small, poorly fitted or top-dose-only effect, or effect the other way, or a change in a side signal; the % refers to the signal ratio; note: 0% is about no effect); details: HTRF ratio (665/615); activation: at 92.2 µM (top of the series)
# In short: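 Quantitative HTS in THP-1 monocytic cells at 2000 cells per well, with 16 hrs compound incubation at 37 C. IL-8 in the medium was then quantified by HTRF immunoassay, read after 1-3 hrs at room temperature.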
# [10] = Cell Viability - LYMP2-004 (AID 966; active = well fitted curve in the direction sought with a large enough effect; inconclusive = small, poorly fitted or top-dose-only effect, or another doubt; inactive = no such curve, though single readings can be large; an effect the other way counts as inactive or inconclusive;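 note: potency is the fitted concentration of half-maximal effect; cells exposed to compound for 24 h; nearly all actives have a fitted effect of over 65% in size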); details: LYMP2-004 lymphoblastoid cell viability, qHTS; activity change, negative = cytotoxicity: at 92.2 µM (top of the series)
# In short: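 qHTS cytotoxicity: human lymphoblastoid line, 24 hr compound treatment, 37 C, complete medium. Viability read as cellular ATP via luciferase luminescence; tetraoctylammonium bromide served as positive control.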
# [11] = target: Bile acid receptor (Homo sapiens) (UniProt Q96RI1); assay: qHTS assay for small molecule antagonists of farnesoid X receptor signaling (AID 588526); details: HEK293T FXR-UAS-bla, beta-lactamase ratio, antagonist mode; activity change, negative = inhibition: at 76.7 µM (top of the series); note: % is set by controls: 0 for no effect and ±100 for the full control effect
# In short: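 Concentration-response titrations were fitted to the Hill equation for half-maximal inhibition and maximal response, with data normalised to 50 uM chenodeoxycholic acid and DMSO control wells. Cells: FXR-UAS-bla HEK293T, dialyzed FBS.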
# [12] = target: Peroxisome proliferator-activated receptor gamma (Homo sapiens) (UniProt P37231); assay: qHTS assay for small molecule antagonists of peroxisome proliferator-activated receptor gamma signaling (AID 588537; active = well fitted inhibition curve with a large enough effect in the signal ratio, with a control signal flat, not every such curve was filed as active; inconclusive = small, poorly fitted or top-dose-only effect, or effect the other way, or a change in a side signal; the % refers to the signal ratio; note: potency is the fitted concentration of half-maximal effect;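 for activity, negative = inhibition: reporter cells co-stimulated with 50 nM rosiglitazone agonist during compound treatment; % of control where 0% means no effect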); details: HEK293 PPARg-UAS-bla, beta-lactamase ratio, antagonist mode; activity, negative = inhibition: at 76.8 µM (top of the series)
# In short: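 Compounds are tested as concentration series for inhibition of rosiglitazone-driven (50 nM) reporter expression in GeneBLAzer PPAR-gamma-UAS-bla HEK293 cells. After 16 h at 37 C, CCF4 substrate is added for 2 h at room temperature and blue/green fluorescence is measured.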
# [13] = target: Glucocorticoid receptor (Homo sapiens) (UniProt P04150); assay: qHTS assay for small molecule antagonists of glucocorticoid receptor signaling (AID 588533; active = well fitted inhibition curve with a large enough effect in the signal ratio, with a control signal flat, not every such curve was filed as active; inconclusive = small, poorly fitted or top-dose-only effect, or effect the other way, or a change in a side signal; the % refers to the signal ratio;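 note: cells stimulated with 2 nM dexamethasone as agonist; % is set by controls: 0 for no effect and ±100 for the full control effect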); details: HeLa MMTV-bla, GRE beta-lactamase ratio, antagonist mode, 18 h; activity change, negative = inhibition: at 76.8 µM (top of the series) unless noted
# [14] = target: Retinoic acid receptor RXR-alpha (Homo sapiens) (UniProt P19793); assay: qHTS assay for small molecule antagonists of retinoid X receptor alpha signaling (AID 588546; active = well fitted inhibition curve with a large enough effect in the signal ratio, with a control signal flat, not every such curve was filed as active; inconclusive = small, poorly fitted or top-dose-only effect, or effect the other way, or a change in a side signal; inactive = no such curve, though single readings can be large or run the other way; the % refers to the signal ratio;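 note: cells stimulated with 9-cis-retinoic acid as agonist; % is set by controls: 0 for no effect and ±100 for the full control effect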); details: HEK293T RXRa-UAS-bla, beta-lactamase ratio, antagonist mode
# In short: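 Beta-lactamase reporter inhibition, read as CCF4 fluorescence ratio (ex 405, em 460/530 nm) after 2 h at RT. HEK293T UAS-bla cells, 2500/well, were stimulated with 9-cis-RA at 500 or 100 nM final alongside test compound for 18 h at 37 C.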
# [15] = target: Glucocorticoid receptor (Homo sapiens) (UniProt P04150); assay: qHTS assay for small molecule agonists of glucocorticoid receptor signaling (AID 588532; active = well fitted curve in the direction sought with a large enough effect in the signal ratio, with a control signal flat; inconclusive = small, poorly fitted or top-dose-only effect, or a change in a side signal; inactive = no such curve, though single readings can be large or run the other way; the % refers to the signal ratio; note: potency is the fitted concentration of half-maximal effect;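 for activation: 100% = dexamethasone at 0.1 µM and 0% = DMSO only wells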); details: HeLa MMTV-bla, beta-lactamase ratio, agonist, 18 h; activation: stronger effect = higher value, percent of dexamethasone control, DMSO zero
# In short: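 Stimulation of a glucocorticoid response element-driven beta-lactamase gene was measured in HeLa cells. Responses were scaled between DMSO basal and 0.1 uM dexamethasone, then fitted for half-maximal stimulation.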
# [16] = target: Peroxisome proliferator-activated receptor delta (Homo sapiens) (UniProt Q03181); assay: qHTS assay for small molecule agonists of peroxisome proliferator-activated receptor delta signaling (AID 588534); details: HEK293T PPARdelta-UAS-bla, beta-lactamase ratio, 18 h; activation: at 76.7 µM (top of the series);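 note: 0% = DMSO basal wells and 100% = positive control agonist at 10 µM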
# In short: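 Agonist-mode qHTS; reporter cells, 5 hrs 37 C pre-incubation; compound titration, 18 hrs 37 C; CCF4 dye, 2 hrs RT; fluorescence read. EC50/efficacy via Hill fit.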
# [17] = target: Peroxisome proliferator-activated receptor gamma (Homo sapiens) (UniProt P37231); assay: qHTS assay for small molecule agonists of peroxisome proliferator-activated receptor gamma signaling (AID 588536; active = well fitted curve in the direction sought with a large enough effect in the signal ratio, with a control signal flat, not every such curve was filed as active; inconclusive = small, poorly fitted or top-dose-only effect, or effect the other way, or a change in a side signal; inactive = no such curve, though single readings can be large or run the other way; the % refers to the signal ratio; note: potency is the fitted concentration of half-maximal effect;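 for activation: 0% = DMSO basal wells and 100% = rosiglitazone at 2 µM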); details: HEK293 PPARg-UAS-bla, beta-lactamase ratio, 16 h; activation: at 76.7 µM (top of the series), percent of rosiglitazone response, DMSO as zero unless noted
# In short: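 This is an agonist-mode beta-lactamase reporter assay in HEK293 PPAR-gamma-UAS-bla cells with 1% charcoal/dextran FBS. Compound titrations ran 16 h at 37 C before CCF4 detection. EC50 and efficacy are Hill fits scaled to 2 uM rosiglitazone (100%) and DMSO basal.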
# [18] = target: Vitamin D3 receptor (Homo sapiens) (UniProt P11473); assay: qHTS assay for small molecule agonists of vitamin D receptor signaling (AID 588543); details: HEK293T VDR-UAS-bla, beta-lactamase ratio, 16 h; activation: at 76.8 µM (top of the series); note: potency is the fitted concentration of half-maximal effect
# In short: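 β-lactamase reporter, VDR-UAS-bla HEK293T, agonist mode. Cells plated 5 h at 37 °C, compound titration 16 h at 37 °C, CCF4 dye 2 h RT, ratio 460/530 nm. Hill fit → EC50, efficacy vs 50 nM 1α,25-(OH)2D3.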
# [19] = target: Retinoic acid receptor RXR-alpha (Homo sapiens) (UniProt P19793); assay: qHTS assay for small molecule agonists of retinoid X receptor alpha signaling (AID 588544); details: HEK293T RXRa-UAS-bla, beta-lactamase reporter, 18 h; activation: at 76.7 µM (top of the series) unless noted; note: potency is the fitted concentration of half-maximal effect;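 for activation: 0% = DMSO basal wells and 100% = reference agonist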
structure (smiles),measurement,setting,value
CC1(C(=O)Nc2ccc(O)c(Cl)c2Cl)CCCCC1,Potency,[1],"inconclusive: 0.0007 µM [side channel, falling, full curve, poor fit]"
same,activity change % (negative = inhibition),[2],inactive: 15.7%
same,Potency,[3],active: 30.6 µM
same,activation,[4],inactive: 0.119%
same,Potency,[5],"inconclusive: 61.1 µM [activator, partial curve, poor fit]"
C=CC(=O)OC,Potency,[6],inactive
same,Potency,[7],inactive
same,activation,[1],inactive: 1.11%
same,"activity change, negative = inhibition",[8],inconclusive: -17.6%
same,Potency,[3],inactive
same,activation,[9],inconclusive: -11.5%
CCCSC(=O)Cl,Potency,[10],"inconclusive: 50.1 µM [cytotoxic, single point]"
same,Potency,[11],inactive
same,"activity change, negative = inhibition",[8],inconclusive: -14.7%
same,"activity, negative = inhibition",[12],inconclusive: 10.5%
same,Potency,[9],inactive
Cc1c(F)c(F)c(COC(=O)C2C(/C=C(\Cl)C(F)(F)F)C2(C)C)c(F)c1F (stereo not given),Potency,[11],inactive
same,"activity change, negative = inhibition",[13],inconclusive: 18%
same,max response,[14],inactive: 12%
same,Potency,[3],"inconclusive: 54.5 µM [activator, partial curve, poor fit]"
CC1CCCCC1NC(=O)Nc1ccccc1 (stereo not given),activation,[15],inactive: -3.51%
same,Potency,[16],inactive
same,activation,[17],inconclusive: 17.3%
same,Potency,[18],"inconclusive: 44.7 µM [side channel, rising, single point]"
same,Potency,[19],"inconclusive: 5.62 µM [inhibitor, full curve]"
same,Potency,[2],"inconclusive: 0.0158 µM [cytotoxic, side channel, full curve, poor fit]"
same,Potency,[3],active: 34.4 µM
COc1ccc(O)c(C(C)(C)C)c1,activation,[15],inactive: -14%
same,Potency,[17],inactive
same,"activity, negative = inhibition",[12],inconclusive: 0.273%
same,Potency,[19],inactive
same,activity change % (negative = inhibition),[2],inconclusive: -8.12%
same,Potency,[3],"inconclusive: 34.4 µM [activator, partial curve]"
same,Potency,[5],inactive
CC(C)(C)OOC(C)(C)CCC(C)(C)OOC(C)(C)C,Potency,[15],"inconclusive: 0.141 µM [side channel, falling, full curve, poor fit]"
same,Potency,[13],inactive
same,Potency,[2],"inconclusive: 2.82 µM [cytotoxic, side channel, full curve]"
same,Potency,[3],inactive
Oc1ccc(C(c2ccc(O)cc2)(C(F)(F)F)C(F)(F)F)cc1,activation,[15],inactive: -15.3%
same,"activity change, negative = inhibition",[13],inconclusive: -62.3%
same,Potency,[17],"inconclusive: 50.1 µM [inhibitor, single point]"
same,Potency,[12],"inconclusive: 44.7 µM [inhibitor, partial curve, poor fit]"
same,activation,[19],inconclusive: 10.5%
same,max response,[14],inconclusive: -42.4%
same,activity change % (negative = inhibition),[2],inconclusive: -48.8%
